Reference: patent US8309552B2, “Immunomodulating heterocyclic compounds” (Medigene AG, priority 2003, dated 2012)
Structures were worked out from names or drawings and are uncertain.

Protein sequences, listed by entry. Tags and fused reporters are not part of them. Residues count along the entry.
UniProt P33681, 35-242 limits assumed: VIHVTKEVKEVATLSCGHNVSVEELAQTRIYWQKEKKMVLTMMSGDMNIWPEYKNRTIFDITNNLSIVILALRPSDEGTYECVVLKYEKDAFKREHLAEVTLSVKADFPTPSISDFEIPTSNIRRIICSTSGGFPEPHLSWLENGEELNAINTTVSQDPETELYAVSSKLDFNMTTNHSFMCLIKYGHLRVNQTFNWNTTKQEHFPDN

System: production of Interleukin-2 (IL-2) by Human Jurkat T Cells
Experiment: Inhibition of production of interleukin-2 (IL-2) by human Jurkat T cells (Raji/Jurkat co-culture, anti-CD3, IL-2 ELISA)
Settings: Compound Concentration 10 μM
Description: • Collins A V et al. (2002) Immunity 17, 201-210 “The interaction properties of costimulatory molecules revisited” Inhibition of Production of Interleukin-2 (IL-2) by Human Jurkat T Cells. Method
Human Raji cells were dispensed at a concentration of 2×10^5 cells per well in RPMI-1640 medium supplemented with 10% fetal calf serum, 1% penicillin/streptomycin, 1% glutamine (RPMI medium) in a 96-well round bottom microtitre plate. Compounds under investigation (dissolved in 100% DMSO) were diluted to eight-fold the desired final concentration in RPMI medium and added to the required final concentration for a total volume of 200 μl per well. After 20 minutes incubation at 37° C., Jurkat T cells were added at a concentration of 2×10^5 cells per well. Monoclonal antibody to CD3 (UCHT1, R&D Systems) was added to the cultures at a final concentration of 1 μg per ml, and where indicated, monoclonal antibody to CD28 (CD28.2, BD-Pharmingen) was also added at a concentration of 2.5 μg per ml. Cells were cultured at 37° C. for 5 hours, after which the plates were centrifuged and the supernatants harvested for IL-2 ELISA assay using the IL-2 Eli-pair kit (DIACLONE Research, Besancon, France) according to the manufacturers instructions.

SMILES	Percentage Inhibition (relative to DMSO = 0%)
CN(C)CCCNC(=O)c1ccc(-n2[nH]c3c(nnc4ccc(F)cc43)c2=O)cc1	48.5%

Target: CD80-CD28 interaction (Homo sapiens, UniProt P33681)
Experiment: Homogenous Time Resolved Fluorescence (HTRF) assay, cell free
Settings: read-out: Activity (EC50 in the HTRF assay); cell free HTRF assay; concentration series 100 μM-1.7 nM; 4 hours at room temperature
Description: Homogenous Time Resolved Fluorescence Assay
The examples described above were tested in a cell free Homogenous Time Resolved Fluorescence (HTRF) assay to determine their activity as inhibitors of the CD80-CD28 interaction.
In the assay, europium and allophycocyanin (APC) are associated with CD28 and CD80 indirectly (through antibody linkers) to form a complex, which brings the europium and APC into close proximity to generate a signal. The complex comprises the following six proteins: fluorescent label 1, linker antibody 1, CD28 fusion protein, CD80 fusion protein, linker antibody 2, and fluorescent label 2. The table below describes these reagents in greater detail.
On formation of the complex, europium and APC are brought into proximity and a signal is generated.
Non-specific interaction was measured by substituting a mouse Fab fragment (C215) for the CD80 mouse Fab fragment fusion protein (1.9 μg/ml). The assay was carried out in black 384 well plates in a final volume of 30 μl. Assay buffer: 50 mM Tris-HCl, 150 mM NaCl pH7.8, containing 0.1% BSA (w/v) added just prior to use.
Compounds were added to the above reagents in a concentration series ranging between 100 μM-1.7 nM. The reaction was incubated for 4 hours at room temperature. Dual measurements were made using a Wallac Victor 1420 Multilabel Counter. First measurement: excitation 340 nm, emission 665 nm, delay 50 μs, window time 200 μs. second measurement: excitation 340 nm, emission 615 nm, delay 50 μs, window time 200 μs. Counts were automatically corrected for fluorescence crossover, quenching and background. The EC50 activities of compounds tested are recorded as: EC50:*=>10 μM,**=1-10 μM,***=<1 μM.

EC50	SMILES
< 1 µM	CN(C)CCCNC(=O)c1ccc(-n2[nH]c3c(nnc4ccc(F)cc43)c2=O)cc1
> 10 µM	O=C(NCc1ccccc1C(F)(F)F)c1ccc(-n2[nH]c3c(nnc4ccccc43)c2=O)cc1
< 1 µM	CCCCN(CCCC)CCCNC(=O)c1ccc(-n2[nH]c3c(nnc4c(F)cccc43)c2=O)cc1
> 10 µM	CC(C)CCCC(C)NC(=O)Nc1ccc(-n2[nH]c3c(nnc4ccccc43)c2=O)cc1 (stereo not shown)

Same assay, conditions: read-out: Activity (EC50 in the HTRF assay); cell-free HTRF, compound concentration series 100 μM-1.7 nM, 4 hours at room temperature

SMILES	EC50
CC(C)NC(=O)Nc1ccc(-n2[nH]c3c(nnc4ccccc43)c2=O)cc1	1 to 10 µM
O=C(NCCCNC1CCCCC1)c1ccc(-n2[nH]c3c(nnc4ccccc43)c2=O)cc1 [Example 4, N-[(cyclohexylamino)propyl]-4-(3-oxo-1,3-dihydro-2H-pyrazolo[4,3-c]cinnolin-2-yl)benzamide]	< 1 µM
CC(C)(C)OC(=O)NCCNC(=O)Nc1ccc(-n2[nH]c3c(nnc4ccccc43)c2=O)cc1	1 to 10 µM

Continued, values first:

EC50	SMILES
> 10 µM	O=C(Nc1cccc(F)c1)c1ccc(-n2[nH]c3c(nnc4ccccc43)c2=O)cc1
1 to 10 µM	O=C(NCCCN1CCCC1=O)c1ccc(-n2[nH]c3c(nnc4ccccc43)c2=O)cc1
